Results as given in patent publication US4692463A, “Antiinflammatory 2,3-didemethylcolchicine and additional derivatives” (The United States of America as represented by the …, priority 1985, dated 1987).
The name of at least one read-out is uncertain.

Test system: tubulin protein
Format: binding
Settings: in vitro; details in J. Med. Chem., 26:1367 (1983)

COc1c(O)c(O)cc2c1-c1ccc(OC)c(=O)cc1[C@@H](NC(C)=O)CC2 [2,3-Didemethylcolchicine]
T.B. in % (tubulin binding): 52%

COc1c2c(cc3c1-c1ccc(OC)c(=O)cc1[C@@H](NC(C)=O)CC3)OCO2 [Cornigerine, 2,3-(Methylenedioxy)-2,3-didemethoxycolchicine]
T.B. in % (tubulin binding): 60%
